# Data published in doi:10.1101/717041.
# Amino acid sequences for entries named in this document (tags omitted). A change or cut given only in a name is not applied to a line headed by its entry.
# UniProt O75970: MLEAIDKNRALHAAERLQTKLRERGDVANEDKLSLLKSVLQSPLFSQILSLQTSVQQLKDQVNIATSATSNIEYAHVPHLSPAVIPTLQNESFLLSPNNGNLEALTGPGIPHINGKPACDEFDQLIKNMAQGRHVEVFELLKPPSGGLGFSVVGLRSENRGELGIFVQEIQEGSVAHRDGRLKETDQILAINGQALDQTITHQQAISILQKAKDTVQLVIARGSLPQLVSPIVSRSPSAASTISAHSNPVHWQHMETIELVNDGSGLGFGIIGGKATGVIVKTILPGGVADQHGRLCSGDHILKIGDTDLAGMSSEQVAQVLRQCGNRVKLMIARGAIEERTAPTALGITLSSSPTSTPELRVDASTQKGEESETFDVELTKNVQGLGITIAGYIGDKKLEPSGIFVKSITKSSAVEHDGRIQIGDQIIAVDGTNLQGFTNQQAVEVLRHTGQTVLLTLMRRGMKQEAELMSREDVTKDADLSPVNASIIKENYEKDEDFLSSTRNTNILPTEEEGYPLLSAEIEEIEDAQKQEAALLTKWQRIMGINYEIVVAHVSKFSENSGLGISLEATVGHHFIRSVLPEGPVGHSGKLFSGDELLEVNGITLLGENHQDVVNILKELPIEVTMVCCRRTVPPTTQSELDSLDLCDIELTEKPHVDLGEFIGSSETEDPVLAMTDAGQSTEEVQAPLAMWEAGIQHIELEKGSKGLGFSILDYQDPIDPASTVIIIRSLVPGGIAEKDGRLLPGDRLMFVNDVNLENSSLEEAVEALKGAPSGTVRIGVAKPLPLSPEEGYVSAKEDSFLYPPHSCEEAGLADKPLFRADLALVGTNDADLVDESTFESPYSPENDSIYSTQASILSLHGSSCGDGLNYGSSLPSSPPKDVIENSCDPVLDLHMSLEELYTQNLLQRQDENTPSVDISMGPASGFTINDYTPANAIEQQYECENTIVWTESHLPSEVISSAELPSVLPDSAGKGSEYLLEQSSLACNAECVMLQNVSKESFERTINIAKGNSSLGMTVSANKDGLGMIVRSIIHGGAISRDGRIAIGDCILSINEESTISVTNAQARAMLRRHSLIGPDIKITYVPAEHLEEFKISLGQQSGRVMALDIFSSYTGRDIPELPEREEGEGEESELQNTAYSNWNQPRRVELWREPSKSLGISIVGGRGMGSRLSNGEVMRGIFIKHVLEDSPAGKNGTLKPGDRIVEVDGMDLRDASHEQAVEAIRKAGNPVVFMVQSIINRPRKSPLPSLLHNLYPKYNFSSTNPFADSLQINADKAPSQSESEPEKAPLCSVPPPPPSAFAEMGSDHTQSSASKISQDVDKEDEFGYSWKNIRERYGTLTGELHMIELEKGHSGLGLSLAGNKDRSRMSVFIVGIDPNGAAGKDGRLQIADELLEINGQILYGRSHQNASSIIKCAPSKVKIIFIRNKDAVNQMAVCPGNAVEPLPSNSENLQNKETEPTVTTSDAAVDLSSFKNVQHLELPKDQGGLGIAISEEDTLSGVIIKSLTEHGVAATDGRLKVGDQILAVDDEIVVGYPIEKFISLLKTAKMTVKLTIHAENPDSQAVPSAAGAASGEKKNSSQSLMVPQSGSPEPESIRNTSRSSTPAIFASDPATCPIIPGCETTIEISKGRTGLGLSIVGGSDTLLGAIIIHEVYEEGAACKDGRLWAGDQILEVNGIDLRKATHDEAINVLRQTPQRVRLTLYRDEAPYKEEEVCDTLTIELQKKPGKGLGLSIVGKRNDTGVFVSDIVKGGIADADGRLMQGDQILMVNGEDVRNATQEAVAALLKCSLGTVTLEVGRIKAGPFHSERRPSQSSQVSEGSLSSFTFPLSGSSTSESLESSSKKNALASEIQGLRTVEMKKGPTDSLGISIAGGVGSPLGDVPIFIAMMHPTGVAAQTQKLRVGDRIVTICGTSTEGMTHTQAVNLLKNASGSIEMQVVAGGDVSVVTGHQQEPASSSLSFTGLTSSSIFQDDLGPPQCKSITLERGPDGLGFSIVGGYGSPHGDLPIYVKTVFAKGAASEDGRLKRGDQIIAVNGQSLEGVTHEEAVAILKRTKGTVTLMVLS
# B1: His-Daple-CT (aa 1650 to 2028) (domain or fragment, UniProt Q9P219 1650-2028)
# chain: GTAPPYVGVRPCSASPSSEMVTLEEFLEESNRSSPTHDTPSCRDDLLSDYFRKASDPPAIGGQPGPPAKKEGAKMPTNFVAPTVKMAAPTSEGRPLKPGQYVKPNFRLTEAEAPPSVAPRQAQPPQSLSLGRPRQAPVPPASHAPASRSASLSRAFSLASADLLRASGPEACKQESPQKLGAPEALGGRETGSHTLQSPAPPSSHSLARERTPLVGKAGSSCQGPGPRSRPLDTRRFSLAPPKEERLAPLHQSATAPAIATAGAGAAAAGSGSNSQLLHFSPAAAPAARTKPKAPPRSGEVATITPVRAGLSLSEGDGVPGQGCSEGLPAKSPGRSPDLAPHLGRALEDCSRGSVSKSSPASPEPGGDPQTVWYEYGCV
# How the values were obtained:
# Assay in all cases: pull-down
# [1] = target: GST-tagged third PDZ domain of mPDZ (UniProt O75970)
# [2] = target: GST-tagged mPDZ PDZ domains (UniProt O75970)
# [3] = target: GST-tagged mPDZ PDZ domains (UniProt O75970); remark: listed apart in the source
Molecule,binding [1],binding [2],binding [3]
myc-Daple Y2025F (from UniProt Q9P219 1-2028),binds,–,–
full length Daple-WT (myc-Daple) (from UniProt Q9P219 1-2028),binds,binds,–
myc-Daple Y2025E (from UniProt Q9P219 1-2028),binds,–,–
full length Daple-E2024A (from UniProt Q9P219 1-2028),binds,–,–
full length Daple-E2024K (from UniProt Q9P219 1-2028),binds,–,–
B1,–,–,binds

# Where two headings read alike, the source gives them in different places. These are yes or no findings as the source states them, for the method shown. Binding calls can cover weak binding; strength is not graded here. For some of these results: Where a sequence is shown, tags or fusion partners need not be part of it. For some of these results: In cells and extracts the contact can be indirect.
